Results are given in words; binding and its absence hold for the method and conditions named. Binding seen in cells or lysates may run through a third protein. Some entries that bind do so weakly or less than the wild type.
B1: endogenous TBL1 (transducin beta-like protein 1) (protein, UniProt O60907 1-577)
chain: MTELAGASSSCCHRPAGRGAMQSVLHHFQRLRGREGGSHFINTSSPRGEAKMSITSDEVNFLVYRYLQESGFSHSAFTFGIESHISQSNINGTLVPPAALISILQKGLQYVEAEISINEDGTVFDGRPIESLSLIDAVMPDVVQTRQQAFREKLAQQQASAAAAAAAATAAATAATTTSAGVSHQNPSKNREATVNGEENRAHSVNNHAKPMEIDGEVEIPSSKATVLRGHESEVFICAWNPVSDLLASGSGDSTARIWNLNENSNGGSTQLVLRHCIREGGHDVPSNKDVTSLDWNTNGTLLATGSYDGFARIWTEDGNLASTLGQHKGPIFALKWNRKGNYILSAGVDKTTIIWDAHTGEAKQQFPFHSAPALDVDWQNNTTFASCSTDMCIHVCRLGCDRPVKTFQGHTNEVNAIKWDPSGMLLASCSDDMTLKIWSMKQEVCIHDLQAHNKEIYTIKWSPTGPATSNPNSNIMLASASFDSTVRLWDIERGVCTHTLTKHQEPVYSVAFSPDGKYLASGSFDKCVHIWNTQSGNLVHSYRGTGGIFEVCWNARGDKVGASASDGSVCVLDLRK

By UniProt entry, the sequences of proteins in these tests, tags left out.
UniProt P0DKA0: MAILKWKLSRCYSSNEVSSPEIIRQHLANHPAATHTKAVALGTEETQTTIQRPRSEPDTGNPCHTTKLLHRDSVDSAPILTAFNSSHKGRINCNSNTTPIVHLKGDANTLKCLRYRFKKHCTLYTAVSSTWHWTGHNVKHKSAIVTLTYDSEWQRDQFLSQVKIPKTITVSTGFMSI
UniProt O15379: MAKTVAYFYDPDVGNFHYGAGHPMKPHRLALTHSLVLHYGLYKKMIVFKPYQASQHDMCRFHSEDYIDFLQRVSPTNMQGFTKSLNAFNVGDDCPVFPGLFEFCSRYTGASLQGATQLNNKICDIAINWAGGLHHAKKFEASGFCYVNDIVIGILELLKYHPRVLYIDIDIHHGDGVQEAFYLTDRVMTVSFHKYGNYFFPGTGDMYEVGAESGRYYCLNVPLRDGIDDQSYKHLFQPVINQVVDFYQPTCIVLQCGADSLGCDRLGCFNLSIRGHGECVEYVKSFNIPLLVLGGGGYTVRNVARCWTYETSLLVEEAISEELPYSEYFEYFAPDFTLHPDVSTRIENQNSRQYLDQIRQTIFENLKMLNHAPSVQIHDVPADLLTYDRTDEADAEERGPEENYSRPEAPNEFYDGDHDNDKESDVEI

Molecular target: HPV16 E8^E2-HA (human papillomavirus 16 (HPV16)) (UniProt P0DKA0)
Experiment: co-IP; HeLa cells transfected with HA-tagged E8^E2 expression vectors; endogenous HDAC3 and TBL1; lysed in IP-buffer (50 mM HEPES pH 7.9, 150 mM NaCl, 0.3% Igepal 630, 1 mM DTT); precipitated with magnetic anti-HA beads; immunoblot with anti-HDAC3, anti-TBL1 and anti-HA

Molecule	binding
endogenous HDAC3 (histone deacetylase 3) (from UniProt O15379 1-428)	binds
B1	binds
